These are yes or no findings as the source states them, for the method shown. In cells and extracts the contact can be indirect. Some entries that bind do so weakly or less than the wild type.
Target: myc-CUL3 (UniProt Q13618)
Test: co-IP; SIRT2 knockdown HEK293T transfected with myc-CUL3 and Flag-4E-BP1 WT or K69R; MG132 for 3 h; freeze-thaw lysis in 50 mM Tris-HCl, 100 mM KCl, pH 7.5; anti-Myc antibody at 4 °C for 3 h, then protein A/G magnetic beads for 1 h; western blot

The chains behind the UniProt entries cited, without tags or fusion partners.
UniProt Q13541: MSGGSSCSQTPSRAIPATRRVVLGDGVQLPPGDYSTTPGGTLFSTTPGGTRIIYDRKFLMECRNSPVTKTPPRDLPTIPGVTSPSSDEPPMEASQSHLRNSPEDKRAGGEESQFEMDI

- binding: binds
Substance: Flag-tagged 4E-BP1 (from UniProt Q13541 1-118)

— paper PMC13260904
